Publication PMC5974179
These are yes or no findings as the source states them, for the method shown. Binding seen in cells or lysates may run through a third protein. Some binding calls cover weakened binding; strength is not graded here.

By UniProt entry, the sequences of proteins in these tests, tags left out.
UniProt P08670: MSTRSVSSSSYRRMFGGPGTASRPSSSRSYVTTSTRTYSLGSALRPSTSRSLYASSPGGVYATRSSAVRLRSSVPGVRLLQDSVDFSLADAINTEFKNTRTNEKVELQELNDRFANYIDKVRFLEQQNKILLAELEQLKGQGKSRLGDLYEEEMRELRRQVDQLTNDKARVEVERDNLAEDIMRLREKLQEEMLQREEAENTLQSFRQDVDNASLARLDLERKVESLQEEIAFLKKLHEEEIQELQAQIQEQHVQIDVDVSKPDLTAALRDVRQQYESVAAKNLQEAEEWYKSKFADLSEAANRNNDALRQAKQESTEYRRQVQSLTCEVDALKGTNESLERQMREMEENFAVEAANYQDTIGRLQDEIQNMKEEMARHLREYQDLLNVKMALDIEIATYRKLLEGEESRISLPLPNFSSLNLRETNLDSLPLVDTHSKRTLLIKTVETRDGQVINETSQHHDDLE
UniProt Q05397: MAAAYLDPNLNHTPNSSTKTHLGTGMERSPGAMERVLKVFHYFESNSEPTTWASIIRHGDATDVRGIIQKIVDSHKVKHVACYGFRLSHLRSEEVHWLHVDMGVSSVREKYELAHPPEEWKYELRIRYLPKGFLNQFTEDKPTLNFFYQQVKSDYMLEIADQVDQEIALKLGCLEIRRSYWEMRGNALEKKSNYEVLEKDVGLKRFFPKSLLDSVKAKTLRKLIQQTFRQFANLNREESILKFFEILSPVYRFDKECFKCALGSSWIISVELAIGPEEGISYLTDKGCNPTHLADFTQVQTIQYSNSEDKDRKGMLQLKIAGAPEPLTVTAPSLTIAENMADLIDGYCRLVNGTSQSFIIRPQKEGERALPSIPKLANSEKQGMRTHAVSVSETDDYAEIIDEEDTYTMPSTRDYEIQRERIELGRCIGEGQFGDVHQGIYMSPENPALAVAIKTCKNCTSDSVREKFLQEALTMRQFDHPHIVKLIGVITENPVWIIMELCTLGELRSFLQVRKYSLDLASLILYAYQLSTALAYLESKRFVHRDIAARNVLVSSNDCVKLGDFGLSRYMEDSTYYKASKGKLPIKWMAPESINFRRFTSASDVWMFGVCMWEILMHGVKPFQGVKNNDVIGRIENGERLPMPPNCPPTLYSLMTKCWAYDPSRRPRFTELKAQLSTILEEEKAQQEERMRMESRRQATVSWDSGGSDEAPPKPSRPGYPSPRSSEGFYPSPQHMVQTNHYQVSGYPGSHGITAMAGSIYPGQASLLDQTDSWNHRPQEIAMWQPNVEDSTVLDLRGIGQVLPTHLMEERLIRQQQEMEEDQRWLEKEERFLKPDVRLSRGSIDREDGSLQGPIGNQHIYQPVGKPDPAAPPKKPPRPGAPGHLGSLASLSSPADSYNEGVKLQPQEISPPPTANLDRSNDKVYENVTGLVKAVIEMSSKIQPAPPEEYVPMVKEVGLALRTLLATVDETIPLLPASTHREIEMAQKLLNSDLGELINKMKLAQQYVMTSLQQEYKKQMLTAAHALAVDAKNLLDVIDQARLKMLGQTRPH

What was measured:
[1] = molecular target: VIM (human (endogenous in SW480)) (UniProt P08670); test: co-IP; protein extracts from SW480 cells (500 ug/sample); CoIP with antibodies against FSTL1 or VIM; western blot
[2] = molecular target: T1, Follistatin-like protein 1 (FSTL1) (human (endogenous in SW480)) (UniProt Q12841); test: as above
T1 sequence: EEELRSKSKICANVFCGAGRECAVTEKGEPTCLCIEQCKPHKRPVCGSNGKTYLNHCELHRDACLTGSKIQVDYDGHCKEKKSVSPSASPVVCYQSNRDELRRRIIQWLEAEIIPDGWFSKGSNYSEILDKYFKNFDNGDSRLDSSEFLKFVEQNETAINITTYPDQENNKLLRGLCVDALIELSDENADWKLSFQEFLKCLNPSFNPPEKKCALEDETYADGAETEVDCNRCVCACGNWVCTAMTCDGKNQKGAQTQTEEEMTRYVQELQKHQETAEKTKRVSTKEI

Substance | binding [1] | binding [2]
Focal adhesion kinase (FAK) (from UniProt Q05397 1-1052) | binds | no binding
VIM (from UniProt P08670 1-466) |  | binds
